In publication doi:10.1101/2021.01.21.427698 one finds binding data, which are given here for 3 molecules.

Holding throughout (assay): two-tag affinity co-purification of co-expressed proteins
Test [1] has as its target T1, mouse SEPT2 with a TEV-cleavable N-terminal His6-tag (mouse) (UniProt P42208).
T1 sequence: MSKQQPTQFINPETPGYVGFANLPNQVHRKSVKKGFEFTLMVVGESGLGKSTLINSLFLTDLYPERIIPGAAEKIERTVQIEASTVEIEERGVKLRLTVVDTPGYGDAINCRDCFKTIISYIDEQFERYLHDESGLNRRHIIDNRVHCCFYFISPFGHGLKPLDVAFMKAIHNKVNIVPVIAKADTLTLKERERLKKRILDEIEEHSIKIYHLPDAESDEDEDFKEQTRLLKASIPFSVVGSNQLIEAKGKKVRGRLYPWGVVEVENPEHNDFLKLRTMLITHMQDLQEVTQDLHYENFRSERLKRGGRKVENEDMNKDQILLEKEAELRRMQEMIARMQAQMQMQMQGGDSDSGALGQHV

Test [2] addresses T2, full-length human SEPT7 with a TEV-cleavable C-terminal Strep-tag-II (as in the human hexamers) (human) (UniProt Q16181).
T2 sequence: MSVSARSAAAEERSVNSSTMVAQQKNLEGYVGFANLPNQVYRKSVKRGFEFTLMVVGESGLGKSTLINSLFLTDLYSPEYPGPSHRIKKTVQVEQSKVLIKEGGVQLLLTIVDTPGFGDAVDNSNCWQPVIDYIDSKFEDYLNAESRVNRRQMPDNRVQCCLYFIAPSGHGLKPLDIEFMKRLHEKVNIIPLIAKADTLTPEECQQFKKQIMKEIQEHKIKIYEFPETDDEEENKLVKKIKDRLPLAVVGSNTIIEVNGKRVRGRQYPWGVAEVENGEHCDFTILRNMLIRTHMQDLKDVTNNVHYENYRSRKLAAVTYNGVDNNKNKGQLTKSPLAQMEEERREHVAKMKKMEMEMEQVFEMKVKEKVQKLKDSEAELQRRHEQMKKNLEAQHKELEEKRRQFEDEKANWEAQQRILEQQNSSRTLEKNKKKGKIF

In test [3] the target is T3, human SEPT9_i3 with a noncleavable C-terminal Strep-tag-II (as in the mammalian octamers-9_i3) (human) (UniProt Q9UHD8).
T3 sequence: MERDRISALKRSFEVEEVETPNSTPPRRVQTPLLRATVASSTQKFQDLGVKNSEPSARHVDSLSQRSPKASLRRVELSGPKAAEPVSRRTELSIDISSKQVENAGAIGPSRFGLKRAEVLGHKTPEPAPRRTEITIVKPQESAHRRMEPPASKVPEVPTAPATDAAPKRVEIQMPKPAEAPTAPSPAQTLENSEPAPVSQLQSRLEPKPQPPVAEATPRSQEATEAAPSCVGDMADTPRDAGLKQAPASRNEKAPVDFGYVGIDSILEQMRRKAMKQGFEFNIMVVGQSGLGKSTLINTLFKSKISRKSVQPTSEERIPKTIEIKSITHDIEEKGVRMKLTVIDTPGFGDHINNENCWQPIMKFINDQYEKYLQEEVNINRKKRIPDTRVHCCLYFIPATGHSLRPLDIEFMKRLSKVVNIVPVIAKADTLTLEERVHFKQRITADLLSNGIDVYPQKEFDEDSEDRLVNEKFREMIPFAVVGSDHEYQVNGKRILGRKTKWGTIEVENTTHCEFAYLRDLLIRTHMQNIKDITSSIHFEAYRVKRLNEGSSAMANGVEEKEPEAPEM

In test [4] the target is T4, human SEPT2 with a TEV-cleavable N-terminal His6-tag and its C-terminus fused to msfGFP (human) (UniProt Q15019).
T4 sequence: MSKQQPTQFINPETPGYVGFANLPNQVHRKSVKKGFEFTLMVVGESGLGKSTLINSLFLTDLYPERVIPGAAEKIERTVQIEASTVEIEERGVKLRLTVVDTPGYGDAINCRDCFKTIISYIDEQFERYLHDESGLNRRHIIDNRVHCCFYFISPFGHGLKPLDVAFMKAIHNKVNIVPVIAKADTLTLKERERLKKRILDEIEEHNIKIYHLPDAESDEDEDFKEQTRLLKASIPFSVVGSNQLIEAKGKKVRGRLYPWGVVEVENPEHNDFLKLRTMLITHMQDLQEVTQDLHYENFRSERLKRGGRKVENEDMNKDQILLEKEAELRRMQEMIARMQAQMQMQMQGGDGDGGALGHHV

Test [5] concerns the target T5, human SEPT9_i1 with a TEV-cleavable C-terminal Strep-tag-II (human) (UniProt Q9UHD8).
T5 sequence: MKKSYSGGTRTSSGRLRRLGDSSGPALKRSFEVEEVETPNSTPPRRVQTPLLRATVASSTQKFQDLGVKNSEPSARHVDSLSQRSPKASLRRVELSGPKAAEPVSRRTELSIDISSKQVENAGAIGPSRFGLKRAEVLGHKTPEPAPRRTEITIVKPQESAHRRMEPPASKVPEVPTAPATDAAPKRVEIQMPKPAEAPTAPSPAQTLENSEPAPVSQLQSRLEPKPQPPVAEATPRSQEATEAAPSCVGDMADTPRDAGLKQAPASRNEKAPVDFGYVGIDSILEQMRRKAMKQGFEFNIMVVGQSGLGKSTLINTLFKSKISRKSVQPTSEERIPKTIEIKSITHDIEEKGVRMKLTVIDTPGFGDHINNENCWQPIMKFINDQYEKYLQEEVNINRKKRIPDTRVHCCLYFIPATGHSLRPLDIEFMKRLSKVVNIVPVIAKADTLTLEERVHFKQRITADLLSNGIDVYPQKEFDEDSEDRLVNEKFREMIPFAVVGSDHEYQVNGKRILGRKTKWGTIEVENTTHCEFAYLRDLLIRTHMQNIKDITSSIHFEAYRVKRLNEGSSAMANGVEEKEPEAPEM

In test [6] the target is T6, human SEPT9_i3 with a TEV-cleavable C-terminal Strep-tag-II (human) (UniProt Q9UHD8).
T6 sequence: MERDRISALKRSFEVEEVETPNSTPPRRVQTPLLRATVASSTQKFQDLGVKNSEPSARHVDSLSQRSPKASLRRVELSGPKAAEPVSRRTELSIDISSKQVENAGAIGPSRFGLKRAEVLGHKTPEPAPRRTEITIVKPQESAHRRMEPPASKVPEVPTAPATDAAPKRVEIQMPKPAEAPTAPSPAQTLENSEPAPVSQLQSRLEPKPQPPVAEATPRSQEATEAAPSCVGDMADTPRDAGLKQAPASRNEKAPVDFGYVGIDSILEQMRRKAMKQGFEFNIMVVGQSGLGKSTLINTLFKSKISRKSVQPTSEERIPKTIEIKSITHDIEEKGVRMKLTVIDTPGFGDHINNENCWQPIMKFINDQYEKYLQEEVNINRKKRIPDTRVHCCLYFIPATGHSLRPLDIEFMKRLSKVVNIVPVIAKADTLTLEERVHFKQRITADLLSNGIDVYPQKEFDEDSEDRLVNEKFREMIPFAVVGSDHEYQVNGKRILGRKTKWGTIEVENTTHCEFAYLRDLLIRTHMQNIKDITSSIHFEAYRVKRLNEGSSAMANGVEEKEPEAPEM

Test [7] has as its target T7, full-length human SEPT7 with a TEV-cleavable C-terminal Strep-tag-II (as in the human hexamers) (human), Q16181.
T7 chain: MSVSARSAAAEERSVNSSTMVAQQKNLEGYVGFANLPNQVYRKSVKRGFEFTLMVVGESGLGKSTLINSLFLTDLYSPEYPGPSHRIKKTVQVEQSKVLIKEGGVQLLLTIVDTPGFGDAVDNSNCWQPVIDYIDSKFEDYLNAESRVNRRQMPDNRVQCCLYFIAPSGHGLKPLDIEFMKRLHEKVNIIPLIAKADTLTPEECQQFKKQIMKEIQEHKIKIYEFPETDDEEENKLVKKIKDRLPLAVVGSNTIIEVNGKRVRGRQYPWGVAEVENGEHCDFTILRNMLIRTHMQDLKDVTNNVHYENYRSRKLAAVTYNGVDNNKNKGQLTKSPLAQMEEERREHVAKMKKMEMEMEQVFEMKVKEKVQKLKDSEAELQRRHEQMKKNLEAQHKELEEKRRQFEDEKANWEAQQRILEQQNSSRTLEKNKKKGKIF
The following applies: remark: other sources report otherwise.

No constants are given. Whether binding was seen depends on the method and setting. Some results given as binding are weak or reduced against the parent protein; the word gives no strength. Sequences can lack the tags named with a protein.

B1: human SEPT6 (protein, UniProt Q14141-2 1-427)
chain: MAATDIARQVGEGCRTVPLAGHVGFDSLPDQLVNKSVSQGFCFNILCVGETGLGKSTLMDTLFNTKFEGEPATHTQPGVQLQSNTYDLQESNVRLKLTIVSTVGFGDQINKEDSYKPIVEFIDAQFEAYLQEELKIRRVLHTYHDSRIHVCLYFIAPTGHSLKSLDLVTMKKLDSKVNIIPIIAKADAISKSELTKFKIKITSELVSNGVQIYQFPTDDESVAEINGTMNAHLPFAVIGSTEELKIGNKMMRARQYPWGTVQVENEAHCDFVKLREMLIRVNMEDLREQTHTRHYELYRRCKLEEMGFKDTDPDSKPFSLQETYEAKRNEFLGELQKKEEEMRQMFVQRVKEKEAELKEAEKELHEKFDRLKKLHQDEKKKLEDKKKSLDDEVNAFKQRKTAAELLQSQGSQAGGSQTLKRDKEKKN
Take B1: the binding result in test [1], in test [2], in test [3] and in test [4] was “binds” in each case.

B2: human SEPT2 with a TEV-cleavable N-terminal His6-tag and its C-terminus fused to msfGFP (protein, UniProt Q15019 1-361)
chain: MSKQQPTQFINPETPGYVGFANLPNQVHRKSVKKGFEFTLMVVGESGLGKSTLINSLFLTDLYPERVIPGAAEKIERTVQIEASTVEIEERGVKLRLTVVDTPGYGDAINCRDCFKTIISYIDEQFERYLHDESGLNRRHIIDNRVHCCFYFISPFGHGLKPLDVAFMKAIHNKVNIVPVIAKADTLTLKERERLKKRILDEIEEHNIKIYHLPDAESDEDEDFKEQTRLLKASIPFSVVGSNQLIEAKGKKVRGRLYPWGVVEVENPEHNDFLKLRTMLITHMQDLQEVTQDLHYENFRSERLKRGGRKVENEDMNKDQILLEKEAELRRMQEMIARMQAQMQMQMQGGDGDGGALGHHV
As to B2, the binding result in test [5] and in test [6] was “binds” each time.

B3: human SEPT2 with a TEV-cleavable N-terminal His6-tag, Q15019 1-361 (protein)
chain: MSKQQPTQFINPETPGYVGFANLPNQVHRKSVKKGFEFTLMVVGESGLGKSTLINSLFLTDLYPERVIPGAAEKIERTVQIEASTVEIEERGVKLRLTVVDTPGYGDAINCRDCFKTIISYIDEQFERYLHDESGLNRRHIIDNRVHCCFYFISPFGHGLKPLDVAFMKAIHNKVNIVPVIAKADTLTLKERERLKKRILDEIEEHNIKIYHLPDAESDEDEDFKEQTRLLKASIPFSVVGSNQLIEAKGKKVRGRLYPWGVVEVENPEHNDFLKLRTMLITHMQDLQEVTQDLHYENFRSERLKRGGRKVENEDMNKDQILLEKEAELRRMQEMIARMQAQMQMQMQGGDGDGGALGHHV
Turning to B3, the binding entry in test [7] is on record as “binds”.
